These are yes or no findings as the source states them, for the method shown. Binding seen in cells or lysates may run through a third protein. Some results given as binding are weak or reduced against the parent protein; the word gives no strength. For some of these results: Sequences can lack the tags named with a protein.

The chains behind the UniProt entries cited, without tags or fusion partners.
UniProt A2DKH3: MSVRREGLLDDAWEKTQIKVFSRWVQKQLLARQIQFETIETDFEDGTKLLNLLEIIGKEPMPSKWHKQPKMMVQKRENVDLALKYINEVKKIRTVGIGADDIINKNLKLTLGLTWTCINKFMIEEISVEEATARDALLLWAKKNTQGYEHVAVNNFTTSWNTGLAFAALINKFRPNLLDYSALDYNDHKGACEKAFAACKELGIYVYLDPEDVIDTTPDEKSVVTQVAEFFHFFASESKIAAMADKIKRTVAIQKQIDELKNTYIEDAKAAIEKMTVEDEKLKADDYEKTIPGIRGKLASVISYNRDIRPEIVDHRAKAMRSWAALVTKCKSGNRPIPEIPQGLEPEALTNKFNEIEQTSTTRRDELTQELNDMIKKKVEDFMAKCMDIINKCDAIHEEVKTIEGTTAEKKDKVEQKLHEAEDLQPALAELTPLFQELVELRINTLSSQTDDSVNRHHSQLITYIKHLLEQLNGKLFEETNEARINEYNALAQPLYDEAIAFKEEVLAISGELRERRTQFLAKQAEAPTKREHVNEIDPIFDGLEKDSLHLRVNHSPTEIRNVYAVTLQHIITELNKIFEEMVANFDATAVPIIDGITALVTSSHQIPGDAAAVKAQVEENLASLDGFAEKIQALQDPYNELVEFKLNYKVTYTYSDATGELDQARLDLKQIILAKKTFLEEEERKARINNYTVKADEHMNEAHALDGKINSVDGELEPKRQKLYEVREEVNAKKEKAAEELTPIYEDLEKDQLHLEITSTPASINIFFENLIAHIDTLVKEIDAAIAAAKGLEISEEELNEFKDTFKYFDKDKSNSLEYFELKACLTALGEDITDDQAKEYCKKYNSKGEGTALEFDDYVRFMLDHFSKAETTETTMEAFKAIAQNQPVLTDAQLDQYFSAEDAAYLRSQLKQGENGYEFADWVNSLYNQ
UniProt P90623: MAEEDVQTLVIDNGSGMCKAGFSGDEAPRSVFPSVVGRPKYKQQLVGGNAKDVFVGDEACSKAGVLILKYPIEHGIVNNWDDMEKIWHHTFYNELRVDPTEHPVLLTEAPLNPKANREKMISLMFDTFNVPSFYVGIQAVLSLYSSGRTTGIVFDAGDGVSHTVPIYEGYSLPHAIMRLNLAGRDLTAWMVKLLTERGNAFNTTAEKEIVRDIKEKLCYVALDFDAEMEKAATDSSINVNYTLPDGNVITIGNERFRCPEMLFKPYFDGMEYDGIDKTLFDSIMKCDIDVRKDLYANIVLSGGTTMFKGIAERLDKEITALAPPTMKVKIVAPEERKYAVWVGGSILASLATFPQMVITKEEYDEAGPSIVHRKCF

For two substances, binding results are on record in article PMC10434240.

Experiment [1] addresses T1, HA-TvFACPα (Trichomonas vaginalis) (UniProt A2FE30).
T1 sequence: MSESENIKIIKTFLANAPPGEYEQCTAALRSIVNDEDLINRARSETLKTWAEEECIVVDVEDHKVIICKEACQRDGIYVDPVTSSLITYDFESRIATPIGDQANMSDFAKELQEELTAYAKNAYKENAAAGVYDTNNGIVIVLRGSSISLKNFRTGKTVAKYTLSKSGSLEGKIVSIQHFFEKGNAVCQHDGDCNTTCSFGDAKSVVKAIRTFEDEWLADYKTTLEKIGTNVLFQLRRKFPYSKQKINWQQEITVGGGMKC
The experiment is described as follows: co-IP; anti-HA agarose beads on lysates of TH17 trophozoites overexpressing HA-TvFACPα or its mutants (1% Triton X-100, 5 mM EDTA in TBS, 4°C overnight); Western blotting for α-actin and α-actinin; also after DMSO or TBB (CKII inhibitor) treatment.

Experiment [2] concerns the target T2, T. vaginalis F-actin capping protein subunit α (TvFACPα), endogenous (Trichomonas vaginalis (endogenous in TH17 trophozoites)) (UniProt A2FE30).
T2 sequence: T1 sequence
Put plainly: co-IP; endogenous TvFACPα immunoprecipitated from lysates of flagellate and amoeboid TH17 trophozoites; Western blotting.

As to “α-Actinin, putative (from UniProt A2DKH3 1-931)”, the binding result in experiment [1] and in experiment [2] was “binds” throughout.

In the case of “α-actin (endogenous T. vaginalis) (from UniProt P90623 1-376)”, the binding result in experiment [1] and in experiment [2] was “binds” each time.
